The values below come from paper PMC5719079.

Assay [1] has as its target T1, V^N-SIRT2 (SIRT2 fused to the N-terminal fragment of Venus, BiFC construct) (human) (UniProt Q8IXJ6).
T1 sequence: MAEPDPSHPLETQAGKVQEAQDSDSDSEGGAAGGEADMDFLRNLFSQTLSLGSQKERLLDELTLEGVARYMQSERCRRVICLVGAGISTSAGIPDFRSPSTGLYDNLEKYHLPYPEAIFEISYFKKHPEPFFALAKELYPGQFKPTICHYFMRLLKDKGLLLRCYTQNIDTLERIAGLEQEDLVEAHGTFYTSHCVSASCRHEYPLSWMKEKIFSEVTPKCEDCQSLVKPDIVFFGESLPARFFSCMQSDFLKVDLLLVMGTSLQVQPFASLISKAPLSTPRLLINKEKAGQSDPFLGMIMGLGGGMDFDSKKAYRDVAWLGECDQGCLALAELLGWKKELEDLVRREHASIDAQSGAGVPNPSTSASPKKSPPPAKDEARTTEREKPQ
Description: split reporter; BiFC competition in HeLa cells: V^C-TPPP/p25 and V^N-SIRT2 with an additional 0.1 μg unlabelled TPPP/p25 or α-synuclein construct; BiFC signal quantified in at least 90 cells.

The target in assay [2] is T1, V^N-SIRT2 (SIRT2 fused to the N-terminal fragment of Venus, BiFC construct) (human). Description: split reporter; BiFC with split Venus in HeLa cells transfected with V^C-TPPP/p25 and V^N-SIRT2 (0.3 μg of each plasmid), fixed cells, fluorescence microscopy; 20 μM MZ25 for 3 hours left the signal unchanged.

These are yes or no findings as the source states them, for the method shown. In cells and extracts the contact can be indirect. Some binding calls cover weakened binding; strength is not graded here. Sequences can lack the tags named with a protein.

“Unlabelled TPPP/p25 (co-transfected competitor) (from UniProt O94811 1-219)”: the binding result in assay [1] is given as “binds”. Regarding “V^C-TPPP/p25 (human full length TPPP/p25 fused to the C-terminal fragment of Venus, BiFC construct) (from UniProt O94811 1-219)”, the binding result in assay [1] and in assay [2] was “binds” in each case.
